Measurements: the supplement of paper PMC12823440, “Inhibitors supercharge kinase turnover through native proteolytic circuits” (Nature, 2025)
Structures can show the parent of a compound that is named as a salt. Some of the results follow. The calls rarely recur for the same compound in another form.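 Kinases, fused to nanoluciferase, were expressed in K562 cells; luminescence was measured every 4 h from 2 to 18 h as percent of control (DMSO = 100%, positive control = 0%). A time point is decreased if signal falls significantly (2 sigma). Hits were called by the authors by a rule that is not shown; the count of time points alone does not decide it.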

Chains of the proteins cited; added tags and fusions are not shown. Lines headed by an entry give the natural chain unless they say otherwise; changes in a name come on top.
UniProt Q6PHR2: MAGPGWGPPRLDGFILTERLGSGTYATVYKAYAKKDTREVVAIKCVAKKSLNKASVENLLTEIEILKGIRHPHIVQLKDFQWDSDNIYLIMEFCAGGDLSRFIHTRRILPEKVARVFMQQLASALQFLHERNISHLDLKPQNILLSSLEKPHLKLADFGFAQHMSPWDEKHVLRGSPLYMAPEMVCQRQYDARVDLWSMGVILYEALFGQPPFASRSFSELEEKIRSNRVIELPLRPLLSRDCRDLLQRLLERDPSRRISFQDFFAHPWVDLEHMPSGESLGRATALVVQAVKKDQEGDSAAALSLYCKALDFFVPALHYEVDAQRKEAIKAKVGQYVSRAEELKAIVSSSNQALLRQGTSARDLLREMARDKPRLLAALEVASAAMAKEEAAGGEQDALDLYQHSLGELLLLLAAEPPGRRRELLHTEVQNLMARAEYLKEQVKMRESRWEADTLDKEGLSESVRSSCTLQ

Target: ULK3 (UniProt Q6PHR2)
Assay: kinase-Nluc reporter destabilization hit call (1 = scored as downregulated) (binary); higher = compound decreases kinase abundance
Details: K562; 2-18 h

kinase-Nluc reporter destabilization hit call, inactive:
O=C(Nc1ccccc1C(=O)NC1CCCCNC1=O)c1cc2ccccc2s1 (centres undefined) (10 µM) 0
CCOc1cc(=O)[nH]cc1-c1ccc(CC(=O)Nc2cc(C(C)(C)C(F)(F)F)on2)c(F)c1 (10 µM) 0
Cn1cnc2c(F)c(Nc3ccc(Br)cc3F)c(C(=O)NOCCO)cc21 [Binimetinib] (10 µM) 0
Cc1ccc(NC(=O)N2CCN(c3nc(N)nc4sc(-c5cccnc5)nc34)CC2)cc1 [PI4KIII beta inhibitor 3] (10 µM) 0
CC(C1CC1)n1cnc2c(NCc3cccc(C(F)(F)F)c3)nc(NCCN(C)C)nc21 (centres undefined) (10 µM) 0
CCn1c(N)c(C(=O)NC)c(=O)c2ccc(C#CC(C)(O)COC)nc21 (centres undefined) (10 µM) 0
N#Cc1cc(N2CCC(C(=O)N3N=CC[C@H]3c3cc(F)cc(F)c3)CC2)ncn1 (10 µM) 0
CN1CCN(Cc2ccc(-c3cn(C4CCC(O)CC4)c4nc(NCCC5CC5)ncc34)cc2)CC1 (centres undefined) (2.5 µM) 0
COc1ccc(Cl)cc1N(CC(=O)Nc1ccc2c(c1)OCO2)S(=O)(=O)c1ccccc1 (2.5 µM) 0
CS[C@@]1(C(=O)Nc2ccc3[nH]nc(-c4ccc(OC(C)C)nc4)c3c2)CCN(CC(=O)N2CC=C(c3ccc(-c4ncn(C)n4)cc3)CC2)C1 (2.5 µM) 0
CCc1cc(Nc2nccc(-c3c(-c4ccc(OC)c(C(=O)Nc5c(F)cccc5F)c4)nc4ccccn34)n2)c(OC)cc1N1CCC(N2CCN(S(C)(=O)=O)CC2)CC1 (2.5 µM) 0
O=C(O)/C=C(\CCc1ccc(Cl)cc1)c1ccccc1 (10 µM) 0
Cc1cccc(CC(=O)N2CCc3c2ccc(-c2cn(C)c4ncnc(N)c24)c3F)n1 (10 µM) 0
CN(C)CCn1cc2cc(NC(=O)c3cccc(C(F)(F)F)n3)c(C(C)(C)O)cc2n1 (10 µM) 0
Cc1cc(N2CCOCC2)ccc1Nc1nc(NC2CCCCC2)c2[nH]cnc2n1 (10 µM) 0
COc1c(Nc2ncc(Cl)c(N[C@H]3[C@@H](C(N)=O)[C@@H]4C=C[C@H]3C4)n2)ccc2c1CC[C@@H](N1CCOCC1)CC2 (10 µM) 0
COc1cc2ncnc(Nc3cc(Br)c(O)c(Br)c3)c2cc1OC (2.5 µM) 0
Cc1cncc2cccc(S(=O)(=O)N3CCCNC[C@@H]3C)c12 [H-1152 (dihydrochloride)] (10 µM) 0
Nc1ccc(O)c(C(=O)O)c1 [5-Aminosalicylic Acid] (10 µM) 0
CC(C)(C)S(=O)(=O)c1cc2c(Nc3ccc4scnc4c3)ncnc2cc1OCCOP(=O)(O)O (2 µM) 0
CC(C)(CCCCCC(O)CCCCCC(C)(C)C(=O)O)C(=O)O [Bempedoic acid] (10 µM) 0
Cc1n[nH]c2ncc(C(=O)N3CCC[C@H]3c3ccc(Cl)cc3)cc12 (10 µM) 0
CCOC(=O)c1c(Nc2ccccc2Cl)oc(/C=C2\C=Nc3ncccc32)c1O (10 µM) 0
O=C(CCl)c1c[nH]c2ccccc12 (2.5 µM) 0
O=C(Nc1ccc(F)cc1F)C(NC(=S)Nc1cc(C(F)(F)F)cc(C(F)(F)F)c1)c1ccccc1 (racemic) (2.5 µM) 0
COc1cc2nc(NC3CC3)nc(NC3CCN(C(C)C)CC3)c2cc1OC (10 µM) 0
C=CC(=O)Nc1cc(Nc2nccc(-c3cn(C)c4ccccc34)n2)c(OCC(F)(F)F)nc1N(C)CCNC [AST5902  (trimesylate)] (2.5 µM) 0
CN(C)c1cc[n+](Cc2ccc(OCCOc3ccc(C[n+]4ccc(N(C)C)cc4)cc3)cc2)cc1 (10 µM) 0
COc1cc(N2CCC(O)CC2)ccc1Nc1nc(Nc2ccccc2S(=O)(=O)C(C)C)c2[nH]cnc2n1 (10 µM) 0
Cc1cccc(-c2nn3c(c2-c2ccnc4ccc(C(N)=O)cc24)CCC3)n1 [Galunisertib] (10 µM) 0
C[C@@H]1COC(Nc2ccc3ncnc(Nc4ccc(OCc5nccs5)c(Cl)c4)c3c2)=N1 [Varlitinib] (10 µM) 0
CS(=O)(=O)c1ccc([C@@H](CC2CCCC2)C(=O)Nc2nccs2)cc1 (10 µM) 0
S=C(NCc1ccc2c(c1)OCO2)N1CCN(c2ncnc3c2oc2ccccc23)CC1 [Amuvatinib] (2.5 µM) 0
CCC(F)(F)c1cc(N2CCC(S(C)(=O)=O)CC2)nc2sc(C(N)=O)c(N)c12 (10 µM) 0
O=c1cc(N2CCOCC2)oc2c(-c3cccc4c3sc3ccccc34)cccc12 (10 µM) 0
N#Cc1cnc(Nc2cc(NC[C@H]3CNCCO3)c(C(F)(F)F)cn2)cn1 (10 µM) 0
Nc1ccc(C(=O)Nc2cccc(-c3nc(N4CCOCC4)c4oc5ncccc5c4n3)c2)cn1 (10 µM) 0
COc1cc(N2CCC(N3CCN(C)CC3)CC2)ccc1Nc1ncnc(Nc2ccccc2S(=O)(=O)C(C)C)n1 (10 µM) 0
CO[C@@H]1[C@H](N(C)C(=O)c2ccccc2)C[C@H]2O[C@]1(C)n1c3ccccc3c3c4c(c5c6ccccc6n2c5c31)C(=O)NC4 [Midostaurin] (2.5 µM) 0

Ordered by formula weight (falling): part of the list above
kinase-Nluc reporter destabilization hit call, inactive:
CS[C@@]1(C(=O)Nc2ccc3[nH]nc(-c4ccc(OC(C)C)nc4)c3c2)CCN(CC(=O)N2CC=C(c3ccc(-c4ncn(C)n4)cc3)CC2)C1 (2.5 µM) 0
CN1CCN(Cc2ccc(-c3cn(C4CCC(O)CC4)c4nc(NCCC5CC5)ncc34)cc2)CC1 (centres undefined) (2.5 µM) 0
CC(C1CC1)n1cnc2c(NCc3cccc(C(F)(F)F)c3)nc(NCCN(C)C)nc21 (centres undefined) (10 µM) 0
